# Experimental data: the supplement of paper PMC10849652
# Chains of the proteins cited; added tags and fusions are not shown. Lines headed by an entry give the natural chain unless they say otherwise; changes in a name come on top.
# UniProt Q96F85: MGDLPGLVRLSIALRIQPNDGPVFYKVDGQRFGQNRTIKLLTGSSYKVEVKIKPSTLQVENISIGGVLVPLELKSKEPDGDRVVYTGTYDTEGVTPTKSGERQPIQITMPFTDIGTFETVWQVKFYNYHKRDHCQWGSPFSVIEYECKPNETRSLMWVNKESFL
# UniProt O15111: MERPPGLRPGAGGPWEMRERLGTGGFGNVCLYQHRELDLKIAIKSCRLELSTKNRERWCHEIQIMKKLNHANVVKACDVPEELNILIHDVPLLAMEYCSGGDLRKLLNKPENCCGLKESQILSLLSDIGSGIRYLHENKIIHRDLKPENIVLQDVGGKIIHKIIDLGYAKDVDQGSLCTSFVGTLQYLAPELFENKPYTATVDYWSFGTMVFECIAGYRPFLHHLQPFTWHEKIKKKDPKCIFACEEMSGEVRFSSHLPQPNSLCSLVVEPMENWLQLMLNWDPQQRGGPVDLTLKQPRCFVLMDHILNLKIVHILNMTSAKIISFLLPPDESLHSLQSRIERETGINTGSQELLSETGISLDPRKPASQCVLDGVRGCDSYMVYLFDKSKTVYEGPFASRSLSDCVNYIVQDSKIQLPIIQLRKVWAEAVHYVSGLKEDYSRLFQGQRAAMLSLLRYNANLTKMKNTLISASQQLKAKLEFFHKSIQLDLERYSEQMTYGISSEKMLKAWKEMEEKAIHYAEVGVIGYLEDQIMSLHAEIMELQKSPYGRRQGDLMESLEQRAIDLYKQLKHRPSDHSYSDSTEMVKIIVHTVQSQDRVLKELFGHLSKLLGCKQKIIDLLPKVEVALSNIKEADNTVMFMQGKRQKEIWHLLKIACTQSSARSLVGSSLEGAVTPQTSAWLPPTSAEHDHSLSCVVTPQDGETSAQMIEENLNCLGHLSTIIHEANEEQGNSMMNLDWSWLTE
# UniProt P33552, whole entry, looked up: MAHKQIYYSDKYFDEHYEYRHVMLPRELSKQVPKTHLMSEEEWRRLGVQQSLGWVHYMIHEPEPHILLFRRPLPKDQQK
# UniProt Q7Z7A1: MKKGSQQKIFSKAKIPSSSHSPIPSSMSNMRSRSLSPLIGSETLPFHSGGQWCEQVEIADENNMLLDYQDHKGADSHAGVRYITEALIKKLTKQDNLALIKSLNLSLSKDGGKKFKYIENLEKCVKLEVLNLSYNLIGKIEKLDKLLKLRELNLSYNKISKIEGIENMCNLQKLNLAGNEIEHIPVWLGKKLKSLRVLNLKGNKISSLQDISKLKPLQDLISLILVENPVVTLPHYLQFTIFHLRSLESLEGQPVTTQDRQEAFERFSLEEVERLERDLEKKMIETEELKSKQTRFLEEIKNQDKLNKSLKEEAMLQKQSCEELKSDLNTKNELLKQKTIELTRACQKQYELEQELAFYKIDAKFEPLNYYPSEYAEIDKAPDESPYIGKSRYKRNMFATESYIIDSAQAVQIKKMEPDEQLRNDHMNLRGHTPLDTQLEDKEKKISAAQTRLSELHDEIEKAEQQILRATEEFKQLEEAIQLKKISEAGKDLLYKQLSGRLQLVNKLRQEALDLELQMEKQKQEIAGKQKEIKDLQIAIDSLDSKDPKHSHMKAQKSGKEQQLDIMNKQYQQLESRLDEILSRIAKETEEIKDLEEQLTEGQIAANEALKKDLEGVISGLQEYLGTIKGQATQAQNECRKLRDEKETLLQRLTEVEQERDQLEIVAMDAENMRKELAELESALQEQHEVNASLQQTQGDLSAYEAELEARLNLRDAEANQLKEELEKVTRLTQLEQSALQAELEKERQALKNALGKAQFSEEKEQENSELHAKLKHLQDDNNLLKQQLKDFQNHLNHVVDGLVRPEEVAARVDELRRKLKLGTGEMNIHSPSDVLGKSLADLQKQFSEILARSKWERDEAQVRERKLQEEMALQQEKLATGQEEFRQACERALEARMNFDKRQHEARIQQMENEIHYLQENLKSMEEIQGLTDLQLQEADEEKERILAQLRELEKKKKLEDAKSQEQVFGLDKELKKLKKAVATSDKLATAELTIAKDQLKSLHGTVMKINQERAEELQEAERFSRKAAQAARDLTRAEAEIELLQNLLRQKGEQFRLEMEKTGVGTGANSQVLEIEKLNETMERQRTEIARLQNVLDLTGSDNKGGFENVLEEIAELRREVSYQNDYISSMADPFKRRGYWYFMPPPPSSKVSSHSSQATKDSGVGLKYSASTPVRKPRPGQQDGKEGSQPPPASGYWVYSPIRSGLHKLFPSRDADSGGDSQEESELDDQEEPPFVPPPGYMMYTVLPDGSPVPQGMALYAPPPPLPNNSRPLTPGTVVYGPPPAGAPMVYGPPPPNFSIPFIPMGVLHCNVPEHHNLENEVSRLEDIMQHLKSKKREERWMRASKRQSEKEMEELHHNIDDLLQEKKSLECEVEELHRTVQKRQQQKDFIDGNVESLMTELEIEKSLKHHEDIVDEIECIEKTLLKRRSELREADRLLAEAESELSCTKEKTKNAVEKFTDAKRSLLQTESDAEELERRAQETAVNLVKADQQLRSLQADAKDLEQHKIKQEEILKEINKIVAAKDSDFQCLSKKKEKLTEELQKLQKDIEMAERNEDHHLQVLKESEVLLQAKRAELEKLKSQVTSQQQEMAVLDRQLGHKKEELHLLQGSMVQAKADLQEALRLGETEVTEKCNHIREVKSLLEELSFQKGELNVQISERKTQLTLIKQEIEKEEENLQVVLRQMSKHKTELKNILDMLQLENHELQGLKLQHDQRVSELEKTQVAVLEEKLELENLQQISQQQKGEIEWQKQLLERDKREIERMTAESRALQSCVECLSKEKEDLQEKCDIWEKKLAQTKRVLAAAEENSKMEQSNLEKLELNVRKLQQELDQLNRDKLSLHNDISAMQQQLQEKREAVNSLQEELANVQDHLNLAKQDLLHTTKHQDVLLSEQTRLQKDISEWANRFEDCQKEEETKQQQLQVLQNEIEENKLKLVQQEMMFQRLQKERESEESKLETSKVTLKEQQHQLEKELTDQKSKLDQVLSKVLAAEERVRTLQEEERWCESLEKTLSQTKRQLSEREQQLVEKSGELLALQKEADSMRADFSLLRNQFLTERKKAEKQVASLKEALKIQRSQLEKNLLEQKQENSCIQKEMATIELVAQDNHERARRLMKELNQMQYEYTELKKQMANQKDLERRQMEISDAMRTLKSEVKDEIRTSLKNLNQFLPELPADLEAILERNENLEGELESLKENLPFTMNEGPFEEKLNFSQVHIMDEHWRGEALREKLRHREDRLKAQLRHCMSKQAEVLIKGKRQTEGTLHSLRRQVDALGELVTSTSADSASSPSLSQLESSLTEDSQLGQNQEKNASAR
# UniProt Q8N0X4: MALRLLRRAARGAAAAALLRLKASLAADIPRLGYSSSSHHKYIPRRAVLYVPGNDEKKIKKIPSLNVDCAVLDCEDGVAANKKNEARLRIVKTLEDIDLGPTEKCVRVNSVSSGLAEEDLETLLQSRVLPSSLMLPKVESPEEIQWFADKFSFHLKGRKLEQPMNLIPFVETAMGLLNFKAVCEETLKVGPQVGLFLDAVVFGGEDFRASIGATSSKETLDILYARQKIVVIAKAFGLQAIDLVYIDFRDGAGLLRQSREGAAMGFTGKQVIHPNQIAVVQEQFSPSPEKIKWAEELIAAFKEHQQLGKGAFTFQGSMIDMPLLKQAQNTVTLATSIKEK
# UniProt Q8WUD6: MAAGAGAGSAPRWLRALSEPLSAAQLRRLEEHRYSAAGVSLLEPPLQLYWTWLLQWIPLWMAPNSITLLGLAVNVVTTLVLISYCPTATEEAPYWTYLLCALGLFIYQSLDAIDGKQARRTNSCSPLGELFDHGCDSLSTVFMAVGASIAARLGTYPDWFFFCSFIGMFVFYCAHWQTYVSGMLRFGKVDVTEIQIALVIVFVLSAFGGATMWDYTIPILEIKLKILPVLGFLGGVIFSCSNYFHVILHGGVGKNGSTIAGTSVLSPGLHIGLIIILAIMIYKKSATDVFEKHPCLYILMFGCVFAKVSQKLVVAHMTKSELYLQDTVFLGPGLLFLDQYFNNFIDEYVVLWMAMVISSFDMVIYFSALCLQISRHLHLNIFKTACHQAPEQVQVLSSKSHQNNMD
# UniProt Q9Y2V7: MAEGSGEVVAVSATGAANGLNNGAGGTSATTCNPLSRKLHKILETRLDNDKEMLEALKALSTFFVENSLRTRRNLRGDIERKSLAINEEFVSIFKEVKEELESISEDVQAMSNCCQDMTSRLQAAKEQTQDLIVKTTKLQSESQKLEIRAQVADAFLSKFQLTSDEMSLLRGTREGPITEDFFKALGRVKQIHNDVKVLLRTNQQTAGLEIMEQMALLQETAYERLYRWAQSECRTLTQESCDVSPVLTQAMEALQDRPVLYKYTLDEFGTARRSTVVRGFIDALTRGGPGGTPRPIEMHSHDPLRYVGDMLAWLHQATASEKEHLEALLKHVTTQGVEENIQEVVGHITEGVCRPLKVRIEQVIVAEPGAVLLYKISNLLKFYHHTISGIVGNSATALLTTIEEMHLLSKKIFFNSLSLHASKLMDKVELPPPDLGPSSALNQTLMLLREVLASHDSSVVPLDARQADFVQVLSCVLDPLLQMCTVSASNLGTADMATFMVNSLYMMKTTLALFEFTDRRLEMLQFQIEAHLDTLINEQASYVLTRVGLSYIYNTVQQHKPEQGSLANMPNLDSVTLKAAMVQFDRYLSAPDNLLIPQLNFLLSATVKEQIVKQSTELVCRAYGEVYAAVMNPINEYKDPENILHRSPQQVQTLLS
# UniProt P62633: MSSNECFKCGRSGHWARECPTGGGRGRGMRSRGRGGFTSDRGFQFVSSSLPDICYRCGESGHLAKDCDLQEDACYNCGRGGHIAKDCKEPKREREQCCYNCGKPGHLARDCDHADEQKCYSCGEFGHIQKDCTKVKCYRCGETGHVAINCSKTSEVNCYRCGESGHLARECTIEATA
# UniProt Q86X52: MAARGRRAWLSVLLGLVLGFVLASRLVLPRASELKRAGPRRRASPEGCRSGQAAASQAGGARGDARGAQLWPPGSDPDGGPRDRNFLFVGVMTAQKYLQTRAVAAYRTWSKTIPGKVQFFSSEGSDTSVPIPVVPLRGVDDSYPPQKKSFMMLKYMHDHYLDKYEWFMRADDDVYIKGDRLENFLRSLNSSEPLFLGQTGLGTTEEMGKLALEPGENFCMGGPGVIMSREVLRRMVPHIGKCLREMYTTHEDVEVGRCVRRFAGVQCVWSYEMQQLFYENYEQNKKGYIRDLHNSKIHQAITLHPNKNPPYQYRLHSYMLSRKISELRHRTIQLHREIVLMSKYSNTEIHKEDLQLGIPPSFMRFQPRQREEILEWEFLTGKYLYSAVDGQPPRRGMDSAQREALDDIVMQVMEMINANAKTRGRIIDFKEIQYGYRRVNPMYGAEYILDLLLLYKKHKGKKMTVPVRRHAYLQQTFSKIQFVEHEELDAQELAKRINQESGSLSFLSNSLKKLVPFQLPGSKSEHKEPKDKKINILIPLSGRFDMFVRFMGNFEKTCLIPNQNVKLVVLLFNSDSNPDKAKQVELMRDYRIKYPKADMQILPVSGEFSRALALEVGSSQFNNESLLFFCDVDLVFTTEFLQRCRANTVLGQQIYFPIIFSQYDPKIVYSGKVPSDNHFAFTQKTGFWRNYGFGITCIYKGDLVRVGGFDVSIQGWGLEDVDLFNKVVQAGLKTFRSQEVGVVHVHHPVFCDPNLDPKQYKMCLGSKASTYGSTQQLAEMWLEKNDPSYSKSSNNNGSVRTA
# UniProt Q9Y240: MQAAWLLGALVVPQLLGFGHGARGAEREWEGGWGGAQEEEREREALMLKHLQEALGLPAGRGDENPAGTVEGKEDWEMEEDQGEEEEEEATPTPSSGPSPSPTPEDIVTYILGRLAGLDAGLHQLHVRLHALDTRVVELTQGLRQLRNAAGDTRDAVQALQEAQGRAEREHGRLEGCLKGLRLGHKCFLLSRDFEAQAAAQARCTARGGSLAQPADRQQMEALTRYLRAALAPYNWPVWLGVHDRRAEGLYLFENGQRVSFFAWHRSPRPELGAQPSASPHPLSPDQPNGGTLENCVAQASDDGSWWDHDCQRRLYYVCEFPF
# UniProt Q9ULM6, whole entry, looked up: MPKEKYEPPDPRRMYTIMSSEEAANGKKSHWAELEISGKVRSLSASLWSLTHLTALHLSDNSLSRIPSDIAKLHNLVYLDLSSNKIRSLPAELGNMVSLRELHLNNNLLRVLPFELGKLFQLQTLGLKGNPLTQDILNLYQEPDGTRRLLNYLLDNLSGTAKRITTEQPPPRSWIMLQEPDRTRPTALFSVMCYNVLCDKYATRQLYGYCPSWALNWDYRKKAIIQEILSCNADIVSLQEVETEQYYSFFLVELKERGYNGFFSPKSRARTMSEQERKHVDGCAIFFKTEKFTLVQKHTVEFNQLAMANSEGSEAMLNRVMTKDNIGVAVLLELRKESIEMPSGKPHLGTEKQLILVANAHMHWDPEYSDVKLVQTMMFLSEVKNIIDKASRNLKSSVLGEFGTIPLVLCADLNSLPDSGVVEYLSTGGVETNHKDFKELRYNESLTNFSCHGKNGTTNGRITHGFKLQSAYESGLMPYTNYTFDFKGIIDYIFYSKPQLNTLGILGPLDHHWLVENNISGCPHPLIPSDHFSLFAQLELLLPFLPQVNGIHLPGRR
# The list shows a part of the results.
# How the values were obtained:
# Experiment in all cases: log2 fold change, soluble protein after heating vs DMSO (PISA); higher = thermal stabilisation; K562 cells, 10 uM, 30 min; active = over 0.2 and 3.5 SD of the protein, either way, in both replicates (recomputed)
# [1] = compound: CON(C)C(=O)N1N=C(c2cc(F)ccc2F)S[C@@]1(CCCN)c1ccccc1 [filanesib]
# Method in brief: (§1)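 Soluble protein was quantified by TMTpro 16plex LC-MS/MS after channel sums were equalised. It was obtained as the supernatant after 21,000xg for 90 min from pooled aliquots of K562 cells (2×10^6 cells/mL, 10 μM compound, 30 min) heated for 3 min across 48°C-58°C and extracted in PBS with 0.5% NP-40 at 4°C. Thermal stability values are relative to control samples and come from duplicates. They are given as log2 fold changes.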
# [2] = compound: COc1cc(Nc2ncc3c(n2)-c2ccc(Cl)cc2C(c2c(F)cccc2OC)=NC3)ccc1C(=O)O [alisertib]
# Method in brief: as §1
# [3] = compound: COc1cccc2cc(-c3nc([C@H]4CC[C@H](C(=O)O)CC4)n4ncnc(N)c34)[nH]c12
# Method in brief: as §1
# [4] = compound: CS(=O)(=O)N1CCN(Cc2cc3nc(-c4cccc5[nH]ncc45)nc(N4CCOCC4)c3s2)CC1 [pictilisib]
# Method in brief: as §1
# [5] = compound: CS(=O)(=O)c1ccc(-c2cnc(N)c(C(=O)Nc3ccccc3)n2)cc1
# Method in brief: as §1
# [6] = compound: C[C@@H]1COCCN1C2=NC(=NC(=C2)C3(CC3)S(=O)(=O)C)C4=C5C=CNC5=CC=C4
# Method in brief: as §1
# [7] = compound: C[C@H](Nc1ncnc2nc[nH]c12)c1cc2cccc(Cl)c2c(=O)n1-c1ccccc1 [duvelisib]
# Method in brief: as §1
# [8] = compound: Cc1cc(Nc2cc(CN3CCOCC3)c3nc(C)c(Cc4ccc(Cl)cc4F)n3n2)n[nH]1 [gandotinib]
# Method in brief: as §1
# [9] = compound: Cc1cc(SCc2sc(-c3ccc(C(F)(F)F)cc3)nc2C)ccc1OCC(=O)O
# Method in brief: as §1
# [10] = compound: COc1cc2nc(-c3cc(F)ccc3O)nc(N[C@@H]3CNC[C@H]3C(C)(C)O)c2cc1OC
# Method in brief: as §1
# [11] = compound: COc1cc2ncnc(Nc3ccc(F)c(Cl)c3)c2cc1OCCCN1CCOCC1 [gefitinib]
# Method in brief: as §1
# [12] = compound: CS(=O)(=O)CCNCc1ccc(-c2ccc3ncnc(Nc4ccc(OCc5cccc(F)c5)c(Cl)c4)c3c2)o1 [lapatinib]
# Method in brief: as §1
# [13] = compound: Cc1ccc(C(=O)N(CCCN)[C@@H](c2nc3cc(Cl)ccc3c(=O)n2Cc2ccccc2)C(C)C)cc1 [ispinesib]
# Method in brief: as §1
# [14] = compound: COc1cc(C(=O)O)ccc1NC(=O)[C@@H]1N[C@@H](CC(C)(C)C)[C@](C#N)(c2ccc(Cl)cc2F)[C@H]1c1cccc(Cl)c1F [idasanutlin]
# Method in brief: as §1
# [15] = compound: CO[C@H]1C[C@@H]2CC[C@@H](C)[C@@](O)(O2)C(=O)C(=O)N2CCCC[C@H]2C(=O)O[C@H]([C@H](C)C[C@@H]2CC[C@H](n3cnnn3)[C@H](OC)C2)CC(=O)[C@H](C)/C=C(\C)[C@@H](O)[C@@H](OC)C(=O)[C@H](C)C[C@H](C)/C=C/C=C/C=C/1C [zotarolimus]
# Method in brief: as §1
# [16] = compound: C[C@H](C1=CC=C(C=C1)C(=O)NC2=C3C=CNC3=NC=C2)N
# Method in brief: as §1
# [17] = compound: Cc1cc(Nc2cc(N3CCN(C)CC3)nc(Sc3ccc(NC(=O)C4CC4)cc3)n2)n[nH]1 [tozasertib]
# Method in brief: as §1
Target,log2 fold change [1],log2 fold change [2],log2 fold change [3],log2 fold change [4],log2 fold change [5],log2 fold change [6],log2 fold change [7],log2 fold change [8],log2 fold change [9],log2 fold change [10],log2 fold change [11],log2 fold change [12],log2 fold change [13],log2 fold change [14],log2 fold change [15],log2 fold change [16],log2 fold change [17]
CIP2A (UniProt Q8TCG1),inactive: 0.586,inactive: 0.73,inactive: -0.157,inactive: 0.415,inactive: 0.325,inactive: -0.132,inactive: 0.498,inactive: 0.41,inactive: -0.377,–,–,–,–,–,–,–,–
CNRIP1 (UniProt Q96F85),–,inactive: 0.075,inactive: -0.223,–,–,inactive: 0.209,–,–,–,inactive: 0.282,inactive: 0.002,inactive: 0.054,inactive: -0.147,–,–,–,–
CLEC2B (UniProt Q92478),–,–,–,–,–,–,–,–,–,inactive: -0.372,–,inactive: 0.077,–,–,–,–,–
CLSTN3 isoform 2 (UniProt Q9BQT9),–,–,–,–,–,inactive: 0.024,–,inactive: -0.16,–,inactive: 0.034,–,inactive: 0.063,–,inactive: 0.132,–,–,–
CIRBP (UniProt Q14011),–,inactive: 0.018,inactive: -0.051,inactive: 0.072,–,inactive: -0.076,inactive: -0.072,inactive: 0.266,inactive: 0.129,inactive: -0.093,inactive: -0.056,inactive: 0.031,–,inactive: 0.137,inactive: 0.023,inactive: 0.238,inactive: -0.039
CLN8 (UniProt Q9UBY8),inactive: 0.068,inactive: 0.04,inactive: -0.015,–,inactive: -0.006,–,–,inactive: -0.1,inactive: -0.09,inactive: -0.019,inactive: 0.075,inactive: 0.012,inactive: -0.15,inactive: -0.145,inactive: 0.13,inactive: 0.161,–
CHUK (UniProt O15111),–,inactive: -0.419,inactive: 0.092,inactive: -0.257,–,inactive: -0.294,inactive: -0.034,inactive: 0.047,inactive: 0.089,–,–,–,inactive: -0.29,inactive: 0.27,inactive: 0.076,inactive: 0.462,inactive: 0.256
CNPY4 (UniProt Q8N129),inactive: 0.071,inactive: -0.113,inactive: 0.056,inactive: -0.026,inactive: 0.122,–,inactive: 0.028,inactive: 0.016,inactive: 0.011,inactive: 0.064,inactive: 0.012,inactive: 0.117,inactive: -0.042,inactive: 0.017,inactive: 0.099,inactive: -0.082,inactive: -0.11
CKS2 (UniProt P33552),–,inactive: -0.029,inactive: 0.14,inactive: -0.666,–,–,–,inactive: -0.272,inactive: -0.038,inactive: 0.184,inactive: 0.093,inactive: -0.036,–,inactive: 0.193,–,–,–
COIL (UniProt P38432),inactive: -0.142,–,–,–,inactive: -0.287,inactive: 0.338,inactive: 0.037,–,inactive: 0.039,inactive: -0.206,inactive: 0.017,inactive: -0.055,inactive: -0.136,inactive: 0.039,–,–,inactive: -0.059
CNTRL (UniProt Q7Z7A1),inactive: 0.226,–,–,–,inactive: -0.014,–,inactive: 0.001,–,inactive: 0.02,–,inactive: -0.005,–,inactive: 0.029,inactive: 0.056,inactive: -0.122,inactive: 0.217,inactive: 0.141
COG7 (UniProt P83436),–,inactive: -0.079,inactive: 0.148,–,–,inactive: -0.16,inactive: -0.2,–,inactive: 0.164,inactive: 0.051,–,inactive: -0.002,inactive: -0.15,inactive: -0.486,inactive: 0.104,inactive: 0.205,–
COL12A1 (UniProt Q99715),inactive: 0.115,–,–,–,inactive: -0.279,inactive: 0.076,–,–,–,inactive: 0.078,–,inactive: -0.049,inactive: -0.013,–,–,–,inactive: -0.085
CLDN6 (UniProt P56747),–,–,–,–,–,–,inactive: -0.109,inactive: -0.205,inactive: 0.027,–,–,–,–,–,–,–,–
CLYBL (UniProt Q8N0X4),–,–,–,–,–,–,–,inactive: -0.05,–,inactive: 0.39,–,inactive: -0.19,–,–,–,–,–
CHPT1 (UniProt Q8WUD6),inactive: -0.345,inactive: -0.136,inactive: -0.015,inactive: -0.096,inactive: 0.064,inactive: -0.07,–,inactive: 0.038,inactive: 0.015,inactive: -0.009,inactive: 0.013,inactive: 0.159,active: -1.09,inactive: -0.018,inactive: -0.017,inactive: 0.023,–
COG6 (UniProt Q9Y2V7),–,inactive: 0.075,inactive: 0,–,–,–,inactive: -0.15,–,inactive: 0.188,inactive: -0.11,–,inactive: 0.131,inactive: 0.131,inactive: 0.053,inactive: 0.115,inactive: 0.323,inactive: 0.042
CNBP (UniProt P62633),inactive: 0.051,inactive: -0.141,inactive: -0.019,inactive: -0.063,inactive: 0.083,–,inactive: 0.014,inactive: 0.165,inactive: -0.089,inactive: 0.001,inactive: -0.013,inactive: -0.051,–,inactive: 0.143,inactive: -0.118,inactive: 0.096,–
CLEC3B (UniProt P05452),inactive: 0.077,inactive: 0.018,inactive: 0.434,–,inactive: -0.127,inactive: -0.076,inactive: -0.178,–,inactive: -0.167,inactive: 0.172,inactive: -0.316,inactive: 0.139,inactive: -0.084,inactive: 0.206,inactive: -0.549,inactive: 0.049,inactive: -0.102
CLDN12 (UniProt P56749),inactive: 0.196,inactive: -0.133,inactive: -0.046,–,inactive: 0.174,inactive: 0.271,–,–,–,–,–,–,–,–,–,–,–
CHSY1 (UniProt Q86X52),–,–,–,–,–,inactive: -0.315,–,–,–,–,–,–,–,–,–,–,–
CLEC11A (UniProt Q9Y240),–,–,–,–,–,–,inactive: -0.004,inactive: -0.008,inactive: 0.135,inactive: -0.064,–,inactive: -0.024,–,–,–,–,inactive: 0.154
CNOT6 (UniProt Q9ULM6),inactive: -0.028,inactive: -0.219,inactive: -0.044,inactive: -0.21,inactive: -0.134,–,inactive: 0.167,inactive: -0.066,inactive: 0.003,–,inactive: 0.062,–,inactive: -0.15,inactive: -0.121,inactive: -0.056,inactive: 0.082,–
CLN6 (UniProt Q9NWW5),inactive: -0.076,inactive: -0.092,inactive: -0.039,–,inactive: -0.007,inactive: 0.055,–,–,–,inactive: -0.042,inactive: 0.071,inactive: 0.021,inactive: -0.049,inactive: -0.094,inactive: -0.061,inactive: -0.078,inactive: -0.063

# Four entries from above in another layout:
Target	log2 fold change [1]	log2 fold change [2]	log2 fold change [3]	log2 fold change [4]	log2 fold change [5]	log2 fold change [6]	log2 fold change [7]	log2 fold change [8]	log2 fold change [9]	log2 fold change [10]	log2 fold change [11]	log2 fold change [12]	log2 fold change [13]	log2 fold change [14]	log2 fold change [15]	log2 fold change [16]	log2 fold change [17]
CLDN12 (UniProt P56749)	inactive: 0.196	inactive: -0.133	inactive: -0.046	–	inactive: 0.174	inactive: 0.271	–	–	–	–	–	–	–	–	–	–	–
CHSY1 (UniProt Q86X52)	–	–	–	–	–	inactive: -0.315	–	–	–	–	–	–	–	–	–	–	–
CLEC11A (UniProt Q9Y240)	–	–	–	–	–	–	inactive: -0.004	inactive: -0.008	inactive: 0.135	inactive: -0.064	–	inactive: -0.024	–	–	–	–	inactive: 0.154
CNOT6 (UniProt Q9ULM6)	inactive: -0.028	inactive: -0.219	inactive: -0.044	inactive: -0.21	inactive: -0.134	–	inactive: 0.167	inactive: -0.066	inactive: 0.003	–	inactive: 0.062	–	inactive: -0.15	inactive: -0.121	inactive: -0.056	inactive: 0.082	–
